Source: PubChem BioAssay AID1159584 (Peter MacCallum Cancer Centre, 2016)
Test: 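Genes that CDH1-null MCF10A cells selectively depend on to survive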 (primary screen). Cell system: human MCF10A breast epithelial cells, parental and CDH1-null. Knock-down reagent: siRNA against human genes. Measurement: 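ATP luminescence (CellTiter-Glo) viability per line relative to mean mock wells over all plates, and the ratio of CDH1-null to parental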. Direction: CDH1-null / parental viability ratio: higher = CDH1-null cells survive relatively better than parental.
The whole screen tested about 18,000 reagents; shown is an unselected part. Reagents against one gene are numbered here. Further read-outs or replicates are left out here. Not stated in the record: the amount of reagent, the time to read-out.

ACP1 | CDH1-null / parental viability ratio = 1.17
EPM2AIP1 | CDH1-null / parental viability ratio = 1.42
PTPN20 #1 | CDH1-null / parental viability ratio = 1.31
PTPN20 #2 | CDH1-null / parental viability ratio = 1.09
MLST8 | CDH1-null / parental viability ratio = 0.8
DUS2 | CDH1-null / parental viability ratio = 1.24
CYB5R5 | CDH1-null / parental viability ratio = 1.01
SLC2A12 | CDH1-null / parental viability ratio = 0.99

2 consecutive entries already listed, for reference:
PTPN20 #2 | CDH1-null / parental viability ratio = 1.09
MLST8 | CDH1-null / parental viability ratio = 0.8

Further reagents follow:
CCDC91 | CDH1-null / parental viability ratio = 1.02
TPPP3 | CDH1-null / parental viability ratio = 0.84
POLE3 | CDH1-null / parental viability ratio = 1
MKLN1 | CDH1-null / parental viability ratio = 0.72
HPDL | CDH1-null / parental viability ratio = 0.82
TYR | CDH1-null / parental viability ratio = 1.76
